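Whole-parasite assay of Trypanosoma brucei over 72 hours; the read-out is not stated. Concentration: 30 µM. Higher reads as stronger inhibition (inferred: compounds with an IC50 in retests scored well above the rest). Values scatter widely below zero; nearly all retest evidence comes from the higher of the two concentrations used. About 64,000 compounds were tested under these conditions; 1.5% (about 940) showed 50% or more at least once.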

Results are given as percent effect. The controls that fix the scale are not given in the record; negative values are as filed. This is an unselected part of the compounds tested.

| structure | percent effect |
|---|---|
| `CC(C)N1CC(C(=O)NC(C)(C)CNC(=O)OC(C)(C)C)CC1=O` (stereo not shown) | -4.716 |
| `CC1CN(Cc2nnsc2Cl)CCN1c1nccs1` (stereo not shown) | -32.14 |
| `CCOC1CCCN(C(=O)c2[nH]nc(C(C)C)c2Br)C1` (stereo not shown) | -26.05 |
| `c1ccc(Cn2cc(CNCC3CNc4ccnn4C3)cn2)cc1` (stereo not shown) | -22.22 |
| `COc1ccc(Nc2ccc(C#N)cn2)cc1N1CCCC1=O` | -1.969 |
| `CC(C)Cc1noc(CN2CCCN(C(=O)c3ccccc3Cl)CC2)n1` | 14.9 |
| `Cc1ccc(CN(C)Cc2nc3c(cnn3C)c(=O)[nH]2)o1` | -13.45 |
| `O=C(O)C(F)(F)F.[H][C@@]12COC[C@]1([H])[C@@H](OCc1csc(C)n1)CN2C(=O)c1cccn1C` | 32.89 |
| `Cc1nc(C(=O)NS(=O)(=O)c2cccc(C#N)c2)cs1` | 2.101 |
| `N#CC1C(=O)Nc2c(cnn2C2CCCC2)C12CCCC2` (stereo not shown) | -47.91 |
| `COc1cc(OC)cc(C2SCC(=O)Nc3ccsc32)c1` (stereo not shown) | 7.911 |
| `Cn1cc(C(=O)N2CCCC(c3cnccn3)C2)cn1` (stereo not shown) | -8.507 |
| `O=C(NC1CCN(c2snc3ccccc23)CC1)C1CCC1` | 46.38 |
| `CNC(=O)CS(=O)(=O)Cc1coc(-c2ccc(F)cc2)n1` | -3.688 |
| `Cc1nc2c(c(N3CCCC(OCc4ccccn4)C3)n1)CCNCC2` (stereo not shown) | -14.6 |
| `COc1ccc(NC(C)C(=O)N2CCN(Cc3ccccc3)CC2)cn1` (stereo not shown) | 48.02 |
| `Cc1nc(C(C)C)sc1C(=O)NCCNc1ncccc1C#N` | -25.41 |
| `Cc1ccc(CN2C[C@@H](C(=O)O)[C@H](c3cccnc3)C2)s1` | -55.29 |
| `COCCN1CCC2(CCN(Cc3ccc(OC)cc3)CC2)C1=O.O=C(O)C(F)(F)F` | 14.66 |
| `CSCC(=O)N[C@H]1CN(Cc2c(C)noc2C)C[C@@H]1C(C)C` | -86.9 |
| `OCCN1CCC(c2cncc(-c3cccc(Cl)c3)n2)CC1` | 28.1 |
| `COC1CCCN(Cc2cc(O)c3cc(C)cc(C)c3n2)C1` (stereo not shown) | -22.65 |
| `Cc1ccccc1CS(=O)(=O)NCCCN1CCCCC1` | 26.15 |
| `COc1cc2nc(C)n(CC(=O)NCCN(C)C)c(=O)c2cc1OC` | -63.51 |
| `Cc1cc(N(C)CCCn2cccn2)nc(-c2cccnc2)n1` | -46.07 |
| `CNC(=O)Cc1noc(-c2cc3c(s2)CCCC3)n1` | -0.7555 |
| `Cc1nn(C)c2cnn(Cc3ccc(C(=O)NCC4CCCO4)o3)c12` (stereo not shown) | -9.712 |
| `Cc1cc(C)n(CCC2CC(=O)Nc3cc4[nH]ncc4cc32)n1` (stereo not shown) | -80.57 |
| `CCc1cnc(CN(C(C)=O)C2CCN(CCN3CCCCC3)C2)o1` (stereo not shown) | -6.58 |
| `CC(=O)Nc1nc(CN2CCn3c(nnc3C(C)C)C2)cs1` | -21.16 |
| `CC1=Nc2c(c(=O)[nH]n2C(C)C)C(c2ccccc2)S1` (stereo not shown) | 40.74 |
| `Cc1noc(C2CCCCN2C(=O)C2CCN(C(C)C)CC2)n1` (stereo not shown) | -36.36 |
| `Cc1nc(CN(C)C(=O)Nc2cnn(CC3CCCO3)c2)cs1` (stereo not shown) | -13.5 |
| `CCc1c(C)n(CCC#N)c2nc3ccccc3n2c1=O` | 6.362 |
| `Nc1ncc(CN2C[C@H](C3CC3)[C@@H](N)C2)cn1` | 5.236 |
| `CNCC[C@H]1CC(C)(C)Oc2ccc(OC)cc21` | -16.4 |
| `C[C@@H]1CN(C2(C(=O)N3CC[C@H](O)C3)Cc3ccccc3C2)C[C@H](C)O1` | -38.46 |
| `Cc1nc(N(C)C)nc(C)c1NS(=O)(=O)c1ccc(F)cc1F` | -14.18 |
| `COCCCN1CCCC12CCN(Cc1cccnc1OC)CC2.O=C(O)C(F)(F)F.O=C(O)C(F)(F)F` | -73.7 |
| `CCc1nnc2ccc(N3CCN(S(=O)(=O)c4ccc(C)s4)CC3)nn12` | 5.273 |
| `Cc1cc(-c2cnc(NCc3cccnc3)nc2C(C)(C)C)on1` | 25.28 |
| `Cc1ccc(N2N=C(C(=O)NCC3CC3)S(=O)(=O)c3cccnc32)cc1` | -46.96 |
| `COc1ccc(CNc2c(N3CCN(C)CC3)c(=O)c2=O)cc1` | -9.434 |
| `Cc1nc(C2CCCN2C(=O)Cc2ccc3c(c2)OCO3)nc(O)c1C` (stereo not shown) | 22.77 |
| `[H][C@@]12CN(Cc3ccccc3OC)CC[C@]1([H])N(C(C)=O)C[C@H]2c1ccsc1` | -17.87 |
| `Cc1nn(C)c(Cl)c1S(=O)(=O)N(CC(N)=O)CC(C)C` | -1.202 |
| `CCOCC1CN(Cc2cnn(C)c2)Cc2ncn(C)c21` (stereo not shown) | 7.828 |
| `NC(=O)Cn1c(CO)cnc1SCC(=O)NCc1ccccc1Cl` | -17.68 |
| `CCc1ccc(S(=O)(=O)N2CCC3(CC(C(=O)NC)=NO3)C2)cc1` (stereo not shown) | 13.63 |
| `COCC(O)CN(C)C(=O)NC1CCN(Cc2ccccn2)CC1` (stereo not shown) | -6.521 |
| `Cc1nc2c(cc1C(=O)O)CCN(CC1CC1)CC2.O=C(O)C(F)(F)F.O=C(O)C(F)(F)F` | -72.99 |
| `OC(CN(Cc1ccccc1)Cc1cccnc1)c1ccco1` (stereo not shown) | -0.0873 |
| `CN(C)C(=O)c1cccnc1N1CCOC(c2ccc(Cl)cc2)C1` (stereo not shown) | -48.42 |
| `CC(=O)N[C@@H]1CN(Cc2ccco2)C[C@H]1c1ccc(C)o1` | -3.094 |
| `Cc1nn(C)c(C)c1CN(C)C(=O)c1cc(NC(=O)C2CC2)n(C)n1` | -3.919 |
| `O=C(O)C(F)(F)F.[H][C@@]12CN(Cc3ccccn3)C[C@]1([H])CN(C(=O)Cc1ccc(OC)cc1)C2` | -4.643 |
| `CCOc1cccc(C(=O)N2CCC(c3n[nH]c(C4CC4)n3)CC2)c1` | 21.13 |
| `COc1ccc(C)cc1CN(C)CC(N)=O` | -33.86 |
| `Cc1ccc(CNc2n[nH]c(C)n2)cc1` | -33.67 |
| `Cc1nn(C)cc1-c1ccnc(N(C)Cc2cnn(C)c2)n1` | -4.745 |
| `CC(Nc1ncnc2c1CCNC2)c1ccc2c(c1)CCCC2` (stereo not shown) | 100.2 |
| `O=C(c1cnc(-c2cccnc2)nc1)N1CCSCC1` | -10.39 |
| `CCc1cc(CN(C)C(=O)CN2CC(c3ccccc3)CC2=O)on1` (stereo not shown) | -25.91 |
| `Cc1nccn1-c1ccc(=O)n(CCNC(=O)c2ccncc2)n1` | -1.967 |
| `Cc1cc(CC(C)NC(=O)c2cccc(CC3CCNCC3)c2)[nH]n1` (stereo not shown) | -16.77 |
| `COc1ccc(C2(C(=O)N3C[C@@H](C(=O)O)[C@H](C(C)C)C3)CC2)cc1` | -4.893 |
| `COc1ccccc1NCc1cscn1.Cl` | -28.25 |
| `CCOc1ccc(NC(=O)N(C)Cc2cnn(C)c2)c(C)c1` | -38.2 |
| `CS(=O)(=O)N1CCC(Oc2ccc(C(=O)NCC3CCC3)cc2Cl)CC1` | -14.4 |
| `CNC(=O)c1cccc(NC(=O)NC(C)c2cc(C)oc2C)c1C` (stereo not shown) | -12.62 |
| `CS(=O)(=O)N1CCN(Cc2cccs2)CC(C(N)=O)C1` (stereo not shown) | 6.98 |
| `COc1ccc(OCCN2CCC(c3ccnn3CCO)CC2)cc1` | 16.51 |
| `Cc1cc(C)c2nc(CNCCNS(C)(=O)=O)cc(O)c2c1` | -5.334 |
| `CCc1c(C)nn(CCNC(=O)c2cnn[nH]2)c1C` | -5.789 |
| `Cc1nc(N[C@H]2COC[C@@H]2N2CCCC2)c2cnn(C)c2n1` | -9.7 |
| `CC1(C)CN(CC(F)(F)F)CCN1CC(=O)NC1CC1` | 0.1753 |
| `O=C(NCc1ccc(N2CCCC2)nc1)N1CCc2sccc2C1` | -4.376 |
| `Cc1nn(C)c(C)c1C1CCCN1Cc1nc(C)c2ccccc2n1` (stereo not shown) | 13.79 |
| `c1cc2c(cc1-c1noc3c1CN(C1CCSC1)CC3)OCO2` (stereo not shown) | -6.799 |
| `O=C(NCCN1CCOCC1)c1cc(Cl)c2c(c1)OCCCO2` | -2.087 |
| `CC(C)C(=O)N1CCN(S(=O)(=O)C2CC2)CC2(CC(=O)N(C)C2)C1` (stereo not shown) | -10.44 |
| `CC(C(=O)N1CCOCC1)n1cncn1` (stereo not shown) | 4.708 |
| `COCCNC(=O)C(C)n1nc(-c2ccc(C)o2)cc(N)c1=O` (stereo not shown) | -17.32 |
| `Cc1csc2ncc(-c3ccnc(N4CCC[C@@H]4CO)n3)c(=O)n12` | 4.954 |
| `NC(=O)C1CCN(C(=O)c2ccccc2OCc2ccccc2Cl)CC1` | -23.39 |
| `CNC(=O)[C@@H]1C[C@H](n2cc(-c3ccc(CN4CC=CC4)cc3)nn2)CN1` | -13.43 |
| `[H][C@]12CCN(S(=O)(=O)c3cccs3)C[C@@]1([H])OCCN(C(C)=O)C2` | -40.11 |

The last 8 entries again:

{"structure": "O=C(NCCN1CCOCC1)c1cc(Cl)c2c(c1)OCCCO2", "percent effect": -2.087}
{"structure": "CC(C)C(=O)N1CCN(S(=O)(=O)C2CC2)CC2(CC(=O)N(C)C2)C1", "stereo": "stereo not shown", "percent effect": -10.44}
{"structure": "CC(C(=O)N1CCOCC1)n1cncn1", "stereo": "stereo not shown", "percent effect": 4.708}
{"structure": "COCCNC(=O)C(C)n1nc(-c2ccc(C)o2)cc(N)c1=O", "stereo": "stereo not shown", "percent effect": -17.32}
{"structure": "Cc1csc2ncc(-c3ccnc(N4CCC[C@@H]4CO)n3)c(=O)n12", "percent effect": 4.954}
{"structure": "NC(=O)C1CCN(C(=O)c2ccccc2OCc2ccccc2Cl)CC1", "percent effect": -23.39}
{"structure": "CNC(=O)[C@@H]1C[C@H](n2cc(-c3ccc(CN4CC=CC4)cc3)nn2)CN1", "percent effect": -13.43}
{"structure": "[H][C@]12CCN(S(=O)(=O)c3cccs3)C[C@@]1([H])OCCN(C(C)=O)C2", "percent effect": -40.11}

From ChEMBL document CHEMBL3988442, “University of Dundee, Small-Polar-MMV Screening Library” (2021).